# Assay results as given in the supplement of paper PMC11438910.
# This is one part of the list. The signal is at background level for most entries.
# B1: 4-173.5 (protein)
# chain 1: QLQLQESGPGLVKPSETLSLTCAVSGDSISSNYWSWIRQPPGKGLEWIGRISDGGGSTDYNPSLKSRVTISTDTSKNQFSLKLNSVTAADTAVYFCARGSYRVDYWGQGVLVTVSS
# chain 2: QAALTQPPSMSGSPGQSVTISCTGASSDIGGYNRVSWYQQHPANAPKLMIYDVSKRPSGVSDRFSGSKSGNTASLTISGLQADDEADYYCSSYAHINTALFGGGTRLTVL
# B2: 4-80.4 (protein)
# chain 1: QVQLQESGPGLVKPSETLSLTCAVSGGSFSSYWWSWIRQSPGKGLEWIGEISGNSGSTNYNPSLKSRVTISKDASKNQFSLKLSSVTAADTAVYYCARYKEYWGQGVLVTVSS
# chain 2: DVVMTQSPLSLLITPGQPASISCRSSQSLVHSNGNTYLSWYQQKPGQPPRRLLYEVSNRDSGVPDRFSGSGAGTDFTLKISRVEAEDVGVYYCGQGTHLPYSFGQGTKVEIK
# Key:
# Assay in all cases: fluorescence intensity of antibody binding to polysaccharide-coupled beads; higher = stronger binding
# [1] = molecular target: pneumococcal polysaccharide C-Poly-1
# [2] = molecular target: pneumococcal polysaccharide C-Poly-2
# [3] = molecular target: pneumococcal polysaccharide Pn1
# [4] = molecular target: pneumococcal polysaccharide Pn10A
# [5] = molecular target: pneumococcal polysaccharide Pn47A
# [6] = molecular target: pneumococcal polysaccharide Pn47F
# [7] = molecular target: pneumococcal polysaccharide Pn48
# [8] = molecular target: pneumococcal polysaccharide Pn5
# [9] = molecular target: pneumococcal polysaccharide Pn6A
# [10] = molecular target: pneumococcal polysaccharide Pn6B
# [11] = molecular target: pneumococcal polysaccharide Pn6C
# [12] = molecular target: pneumococcal polysaccharide Pn6D
# [13] = molecular target: pneumococcal polysaccharide Pn7A
# [14] = molecular target: pneumococcal polysaccharide Pn7B
# [15] = molecular target: pneumococcal polysaccharide Pn7C
# [16] = molecular target: pneumococcal polysaccharide Pn7F
# [17] = molecular target: pneumococcal polysaccharide Pn8
# [18] = molecular target: pneumococcal polysaccharide Pn9A
# [19] = molecular target: pneumococcal polysaccharide Pn9L
# [20] = molecular target: pneumococcal polysaccharide Pn9N
# [21] = molecular target: pneumococcal polysaccharide Pn9V
# [22] = antibody concentration 0.1 ng/mL
# [23] = antibody concentration 0.534724 ng/mL
# [24] = antibody concentration 2.8593 ng/mL
# [25] = antibody concentration 15.2894 ng/mL
# [26] = antibody concentration 81.7561 ng/mL
# [27] = antibody concentration 437.17 ng/mL
# [28] = antibody concentration 2337.65 ng/mL
# [29] = antibody concentration 12500 ng/mL
binder,measurement,setting,value
B1,fluorescence intensity,[1]; [22],26.5 MFI
same,fluorescence intensity,[1]; [23],26 MFI
same,fluorescence intensity,[1]; [24],26.5 MFI
same,fluorescence intensity,[1]; [25],29.2 MFI
same,fluorescence intensity,[1]; [26],39 MFI
same,fluorescence intensity,[1]; [27],108 MFI
same,fluorescence intensity,[1]; [28],385 MFI
same,fluorescence intensity,[1]; [29],840 MFI
same,fluorescence intensity,[2]; [22],20.5 MFI
same,fluorescence intensity,[2]; [23],20.5 MFI
same,fluorescence intensity,[2]; [24],22.5 MFI
same,fluorescence intensity,[2]; [25],30 MFI
same,fluorescence intensity,[2]; [26],89.5 MFI
same,fluorescence intensity,[2]; [27],398 MFI
same,fluorescence intensity,[2]; [28],1530 MFI
same,fluorescence intensity,[2]; [29],2770 MFI
same,fluorescence intensity,[3]; [22],13.5 MFI
same,fluorescence intensity,[3]; [23],14.5 MFI
same,fluorescence intensity,[3]; [24],15.5 MFI
same,fluorescence intensity,[3]; [25],24.5 MFI
same,fluorescence intensity,[3]; [26],74.5 MFI
same,fluorescence intensity,[3]; [27],322 MFI
same,fluorescence intensity,[3]; [28],931 MFI
same,fluorescence intensity,[3]; [29],1520 MFI
same,fluorescence intensity,[4]; [22],28 MFI
same,fluorescence intensity,[4]; [23],27.5 MFI
same,fluorescence intensity,[4]; [24],30.8 MFI
same,fluorescence intensity,[4]; [25],48.5 MFI
same,fluorescence intensity,[4]; [26],167 MFI
same,fluorescence intensity,[4]; [27],750 MFI
B2,fluorescence intensity,[5]; [28],16.8 MFI
same,fluorescence intensity,[5]; [29],20 MFI
same,fluorescence intensity,[6]; [22],11 MFI
same,fluorescence intensity,[6]; [23],11.5 MFI
same,fluorescence intensity,[6]; [24],11 MFI
same,fluorescence intensity,[6]; [25],10.5 MFI
same,fluorescence intensity,[6]; [26],12 MFI
same,fluorescence intensity,[6]; [27],12 MFI
same,fluorescence intensity,[6]; [28],14.2 MFI
same,fluorescence intensity,[6]; [29],31.5 MFI
same,fluorescence intensity,[7]; [22],21 MFI
same,fluorescence intensity,[7]; [23],19.8 MFI
same,fluorescence intensity,[7]; [24],19 MFI
same,fluorescence intensity,[7]; [25],20.8 MFI
same,fluorescence intensity,[7]; [26],20.5 MFI
same,fluorescence intensity,[7]; [27],22 MFI
same,fluorescence intensity,[7]; [28],24.5 MFI
same,fluorescence intensity,[7]; [29],42.5 MFI
same,fluorescence intensity,[8]; [22],8.5 MFI
same,fluorescence intensity,[8]; [23],9 MFI
same,fluorescence intensity,[8]; [24],8.5 MFI
same,fluorescence intensity,[8]; [25],8.25 MFI
same,fluorescence intensity,[8]; [26],9.25 MFI
same,fluorescence intensity,[8]; [27],8.75 MFI
same,fluorescence intensity,[8]; [28],10.5 MFI
same,fluorescence intensity,[8]; [29],31 MFI
same,fluorescence intensity,[9]; [22],21.2 MFI
same,fluorescence intensity,[9]; [23],20.8 MFI
same,fluorescence intensity,[9]; [24],20.2 MFI
same,fluorescence intensity,[9]; [25],20 MFI
same,fluorescence intensity,[9]; [26],23 MFI
same,fluorescence intensity,[9]; [27],21 MFI
same,fluorescence intensity,[9]; [28],24 MFI
same,fluorescence intensity,[9]; [29],33 MFI
same,fluorescence intensity,[10]; [22],19 MFI
same,fluorescence intensity,[10]; [23],18.8 MFI
same,fluorescence intensity,[10]; [24],20 MFI
same,fluorescence intensity,[10]; [25],18.5 MFI
same,fluorescence intensity,[10]; [26],18 MFI
same,fluorescence intensity,[10]; [27],20.5 MFI
same,fluorescence intensity,[10]; [28],20.5 MFI
same,fluorescence intensity,[10]; [29],31.2 MFI
same,fluorescence intensity,[11]; [22],17.2 MFI
same,fluorescence intensity,[11]; [23],15 MFI
same,fluorescence intensity,[11]; [24],17 MFI
same,fluorescence intensity,[11]; [25],18.8 MFI
same,fluorescence intensity,[11]; [26],17.2 MFI
same,fluorescence intensity,[11]; [27],20.8 MFI
same,fluorescence intensity,[11]; [28],31 MFI
same,fluorescence intensity,[11]; [29],43 MFI
same,fluorescence intensity,[12]; [22],18.5 MFI
same,fluorescence intensity,[12]; [23],17.5 MFI
same,fluorescence intensity,[12]; [24],17.5 MFI
same,fluorescence intensity,[12]; [25],18 MFI
same,fluorescence intensity,[12]; [26],16.5 MFI
same,fluorescence intensity,[12]; [27],17.5 MFI
same,fluorescence intensity,[12]; [28],18 MFI
same,fluorescence intensity,[12]; [29],21.5 MFI
same,fluorescence intensity,[13]; [22],19 MFI
same,fluorescence intensity,[13]; [23],20.5 MFI
same,fluorescence intensity,[13]; [24],19.5 MFI
same,fluorescence intensity,[13]; [25],19 MFI
same,fluorescence intensity,[13]; [26],20.2 MFI
same,fluorescence intensity,[13]; [27],20 MFI
same,fluorescence intensity,[13]; [28],29.5 MFI
same,fluorescence intensity,[13]; [29],116 MFI
same,fluorescence intensity,[14]; [22],16 MFI
same,fluorescence intensity,[14]; [23],17.5 MFI
same,fluorescence intensity,[14]; [24],16.5 MFI
same,fluorescence intensity,[14]; [25],17.5 MFI
same,fluorescence intensity,[14]; [26],15 MFI
same,fluorescence intensity,[14]; [27],16 MFI
same,fluorescence intensity,[14]; [28],19 MFI
same,fluorescence intensity,[14]; [29],32 MFI
same,fluorescence intensity,[15]; [22],14 MFI
same,fluorescence intensity,[15]; [23],15.2 MFI
same,fluorescence intensity,[15]; [24],16 MFI
same,fluorescence intensity,[15]; [25],16.8 MFI
same,fluorescence intensity,[15]; [26],16.2 MFI
same,fluorescence intensity,[15]; [27],17 MFI
same,fluorescence intensity,[15]; [28],17.5 MFI
same,fluorescence intensity,[15]; [29],27 MFI
same,fluorescence intensity,[16]; [22],14.5 MFI
same,fluorescence intensity,[16]; [23],14.5 MFI
same,fluorescence intensity,[16]; [24],14 MFI
same,fluorescence intensity,[16]; [25],14 MFI
same,fluorescence intensity,[16]; [26],15 MFI
same,fluorescence intensity,[16]; [27],14.5 MFI
same,fluorescence intensity,[16]; [28],19 MFI
same,fluorescence intensity,[16]; [29],60.5 MFI
same,fluorescence intensity,[17]; [22],21 MFI
same,fluorescence intensity,[17]; [23],21.8 MFI
same,fluorescence intensity,[17]; [24],22 MFI
same,fluorescence intensity,[17]; [25],21.5 MFI
same,fluorescence intensity,[17]; [26],21.5 MFI
same,fluorescence intensity,[17]; [27],21 MFI
same,fluorescence intensity,[17]; [28],25 MFI
same,fluorescence intensity,[17]; [29],36.2 MFI
same,fluorescence intensity,[18]; [22],19.8 MFI
same,fluorescence intensity,[18]; [23],18.8 MFI
same,fluorescence intensity,[18]; [24],19 MFI
same,fluorescence intensity,[18]; [25],19.8 MFI
same,fluorescence intensity,[18]; [26],19 MFI
same,fluorescence intensity,[18]; [27],19.5 MFI
same,fluorescence intensity,[18]; [28],22 MFI
same,fluorescence intensity,[18]; [29],37.5 MFI
same,fluorescence intensity,[19]; [22],16.5 MFI
same,fluorescence intensity,[19]; [23],17.5 MFI
same,fluorescence intensity,[19]; [24],18.5 MFI
same,fluorescence intensity,[19]; [25],17 MFI
same,fluorescence intensity,[19]; [26],17 MFI
same,fluorescence intensity,[19]; [27],16.5 MFI
same,fluorescence intensity,[19]; [28],19.5 MFI
same,fluorescence intensity,[19]; [29],28.5 MFI
same,fluorescence intensity,[20]; [22],14.5 MFI
same,fluorescence intensity,[20]; [23],16 MFI
same,fluorescence intensity,[20]; [24],15.5 MFI
same,fluorescence intensity,[20]; [25],16.5 MFI
same,fluorescence intensity,[20]; [26],15.5 MFI
same,fluorescence intensity,[20]; [27],17 MFI
same,fluorescence intensity,[20]; [28],17.5 MFI
same,fluorescence intensity,[20]; [29],29.2 MFI
same,fluorescence intensity,[21]; [22],14 MFI
same,fluorescence intensity,[21]; [23],15.5 MFI
same,fluorescence intensity,[21]; [24],14 MFI
same,fluorescence intensity,[21]; [25],14.5 MFI
same,fluorescence intensity,[21]; [26],15 MFI
same,fluorescence intensity,[21]; [27],14.5 MFI
same,fluorescence intensity,[21]; [28],16 MFI
same,fluorescence intensity,[21]; [29],22 MFI

# An excerpt from the list above:
binder,measurement,setting,value
B2,fluorescence intensity,[16]; [24],14 MFI
same,fluorescence intensity,[16]; [25],14 MFI
same,fluorescence intensity,[16]; [26],15 MFI
same,fluorescence intensity,[16]; [27],14.5 MFI
same,fluorescence intensity,[16]; [28],19 MFI

# Four entries from above, reformatted:
binder | measurement | setting | value
B1 | fluorescence intensity | [3]; [26] | 74.5 MFI
same | fluorescence intensity | [4]; [25] | 48.5 MFI
B2 | fluorescence intensity | [11]; [27] | 20.8 MFI
same | fluorescence intensity | [20]; [27] | 17 MFI
